These are yes or no findings as the source states them, for the method shown. In cells and extracts the contact can be indirect. A result given as binding can be weak or reduced; the word gives no strength.
Target: GST-P300 fusion protein
Assay: pull-down; GST fusion protein coupled to Glutathione-Sepharose 4B beads, incubated with GCDH overexpression MHCC-97H whole-cell lysates for 2 h at 4 °C, washed 3 times, Western blot; only the target purified

B1: GCDH overexpressed in MHCC-97H cells (protein, UniProt Q92947 45-438)
chain: RPEFDWQDPLVLEEQLTTDEILIRDTFRTYCQERLMPRILLANRNEVFHREIISEMGELGVLGPTIKGYGCAGVSSVAYGLLARELERVDSGYRSAMSVQSSLVMHPIYAYGSEEQRQKYLPQLAKGELLGCFGLTEPNSGSDPSSMETRAHYNSSNKSYTLNGTKTWITNSPMADLFVVWARCEDGCIRGFLLEKGMRGLSAPRIQGKFSLRASATGMIIMDGVEVPEENVLPGASSLGGPFGCLNNARYGIAWGVLGASEFCLHTARQYALDRMQFGVPLARNQLIQKKLADMLTEITLGLHACLQLGRLKDQDKAAPEMVSLLKRNNCGKALDIARQARDMLGGNGISDEYHVIRHAMNLEAVNTYEGTHDIHALILGRAITGIQAFTASK
  binding: binds

From article PMC12395558
